For this assay, the target named is recombinant human GAPDH A183W with C-terminal eGFP (human) (UniProt P04406). Description: SEC; fluorescence-detection SEC of lysate (DDM/CHS) of transfected cells, Superdex 200 Increase 10/300 GL in TBS, GFP signal. On the technique in general: SEC sorts molecules by how far they enter the pores of the column.

By UniProt entry, the sequences of proteins in these tests, tags left out. Where a name states a change or a piece, a line headed by the entry shows the natural chain unless it says otherwise.
UniProt P04406: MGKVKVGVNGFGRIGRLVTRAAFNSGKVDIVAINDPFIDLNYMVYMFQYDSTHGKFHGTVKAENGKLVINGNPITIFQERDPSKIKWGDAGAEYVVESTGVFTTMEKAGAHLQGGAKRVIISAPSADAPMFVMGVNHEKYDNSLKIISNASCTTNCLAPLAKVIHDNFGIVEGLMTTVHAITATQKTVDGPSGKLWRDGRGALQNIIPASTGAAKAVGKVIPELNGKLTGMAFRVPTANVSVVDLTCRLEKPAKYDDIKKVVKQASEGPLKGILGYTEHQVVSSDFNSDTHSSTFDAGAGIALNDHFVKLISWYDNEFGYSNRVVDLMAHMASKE

These are yes or no findings as the source states them, for the method shown. Some binding calls cover weakened binding; strength is not graded here.

For the substance “recombinant human GAPDH A183W with C-terminal eGFP (from UniProt P04406 1-335) (enzyme)”, the binding result is on record as “binds”.

Values taken from paper PMC10401002.
